# Out of some 320,000 compounds screened, about 2,100 (0.66%) were called active. The shares of active, inactive and inconclusive entries below differ from those in the screen. Calls follow the shape of the dose curve; as a rule, active = well fitted inhibition curve with a large enough effect in the signal ratio, with a control signal flat (not every such curve was filed as active); inconclusive = small, poorly fitted or top-dose-only effect, or effect the other way, or a change in a side signal; inactive = flat fitted curve, though single readings scatter; the % refers to the signal ratio. Potencies beside an inconclusive call are fits to weak or partial responses and may not hold up.
# Experiment: qHTS Assay for Lipid Storage Modulators in Drosophila S3 Cells
# Details: BODIPY lipid droplet fluorescence, 18-24 h, cells fed with added oleic acid; lipid storage change, negative = inhibition: at 46.1 µM (top of the series) unless noted
# Procedure, shortened: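 Drosophila S3 cells got compounds at several concentrations plus oleic acid (400 uM solution). Laser-scanning cytometry with 488 nm excitation read lipid droplets at 500-530 nm and cells at 575-640 nm. Percent activity was relative to 20 uM Triacsin C.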
# % is scaled to controls: 0 for no effect and ±100 for the full control effect; potency is read from the fitted curve at half-maximal effect.
SMILES,"lipid storage change, negative = inhibition",Potency
Cc1c(OCc2ccc([N+](=O)[O-])cc2)ccc2c3c(c(=O)oc12)CCC3,inconclusive: 18.6%,
Cc1ccc(NC(=S)N(CCCN2CCN(C)CC2)Cc2cccs2)cc1,inconclusive: 6.82%,
CCCOc1ccc(N/C=C/C(=O)C(C)(C)C)cc1,inconclusive: 17.1%,
CC(=O)N1CCC(=NNS(=O)(=O)c2cccc([N+](=O)[O-])c2)CC1,,"inconclusive: 0.103 µM [falling, full curve, poor fit]"
Clc1ccc(-c2n[nH]c3c2Cc2ccccc2-3)cc1Cl,inconclusive: 7.75%,
Cc1ccc2cc(C#N)c(N3CCCN(C(=S)NCCCN(C)C)CC3)nc2c1,inconclusive: -16.4%,
Cc1cc(OC(F)F)ccc1NC(=O)Nc1ccc2c(c1)OCO2,,"inconclusive: 0.562 µM [activator, full curve, poor fit]"
Nc1c(C(=O)c2ccc(Cl)cc2)sc2nsc(SCCN3CCOCC3)c12,,"inconclusive: 20.6 µM [falling, single point]"
O=C(COc1ccccc1/C=C1/NC(=O)NC1=O)Nc1ccccc1,inconclusive: 8.2%,
Cc1ccc2oc(C(=O)N3CCN(c4cccc(C)n4)CC3)c(C)c2c1,inconclusive: -8.18%,
CC(=O)Nc1ccc(C(=O)OCC(=O)Nc2ccc([N+](=O)[O-])cc2C(F)(F)F)cc1,inconclusive: 6.81%,
NS(=O)(=O)c1ccc(CCNCc2cc(Cl)ccc2OCc2ccccc2)cc1,inconclusive: 20.1%,
Cc1ccc(CNS(=O)(=O)c2ccc(C)s2)cc1,inconclusive: -3.52%,
CCc1ccc(OCC(=O)Nc2ccncc2)c(Br)c1,inconclusive: -44.8%,
O=C(CCS(=O)(=O)c1cccs1)Nc1ccc(C(=O)NC2CCCC2)cc1,inconclusive: 29.8% [at 9.22 µM],
CCOc1ccc(NC(=O)c2ccncc2)cc1,,"inconclusive: 18.4 µM [activator, single point]"
Cc1cccc2cc(CN(C(=O)c3cccs3)c3ccccc3)c(=O)[nH]c12,inconclusive: 25.5%,
CC(=O)Nc1ccccc1-c1nn[nH]n1,,"inconclusive: 0.651 µM [falling, full curve, poor fit]"
CN(C)S(=O)(=O)c1ccc(NC(=O)CSc2n[nH]c(=O)n2C2CC2)cc1,,"inconclusive: 29.1 µM [activator, single point]"
CC(C)C(NC(=O)c1ccco1)C(=O)OCC(=O)NCCc1ccccc1 (stereo not drawn),inconclusive: 23.1%,
Cc1ccc(-n2c(C)cc(/C=N/Nc3ccc([N+](=O)[O-])cn3)c2C)c(C)c1,,"inconclusive: 29.1 µM [falling, single point]"
CC(C)NC(=O)c1nc2ccccc2s1,inconclusive: 37%,
CC(C)N=C(Nc1ccccc1)c1cccnc1,,"inconclusive: 8.2 µM [activator, partial curve, poor fit]"
COc1ccc(NC(=O)C(OC(=O)c2cnc(C)cn2)c2ccccc2)cc1Cl (stereo not drawn),inconclusive,

SMILES,"lipid storage change, negative = inhibition",Potency
CCOc1ccc(NC(=O)C2C(C(=O)O)C3(Cl)C(Cl)=C(Cl)C2(Cl)C3(Cl)Cl)cc1 (stereo not drawn),inconclusive: -22.2%,
COc1ccc(CCNC(=O)CSc2nc3[nH]ncc3c(=O)n2-c2ccc(Br)cc2)cc1OC,inconclusive: -23.8%,
COc1cc(NC(=O)Cc2ccccc2)c(C(=O)O)cc1OC,inconclusive: 23.6%,
CCCCc1cc(=O)oc2cc(OCC(=O)N3C[C@H]4C[C@@H](C3)c3cccc(=O)n3C4)ccc12,inconclusive: 2.5%,
CCSc1nnc(NC(=O)c2ccc(F)c(S(=O)(=O)N3CCOCC3)c2)s1,,"inconclusive: 20.6 µM [falling, single point]"
COc1ccc(CNC(=O)C(c2ccc(C)o2)N(C(=O)c2snc(C(N)=O)c2N)c2ccccc2OC)cc1 (stereo not drawn),,"inconclusive: 0.0052 µM [falling, full curve, poor fit]"
Cc1ccccc1C(=O)N1CC(=O)Nc2ccc(F)cc2C1c1ccc(F)cc1 (stereo not drawn),inconclusive: 63.9%,
Cc1ccccc1N1CCN(S(=O)(=O)c2nnc(NC(=O)CC(C)C)s2)CC1,inconclusive: -38%,
COc1ccc(C(C)=O)cc1CN(c1ccccc1OC)S(=O)(=O)c1cccs1,,"inconclusive: 2.59 µM [activator, single point]"
COc1ccc(C(CNC(=O)Nc2ccc(Cl)cc2)N2CCN(C)CC2)cc1 (stereo not drawn),inconclusive: -10.9%,
COc1ccc2cnnc(SCC(=O)Nc3ccc(C(=O)O)cc3)c2c1OC,inconclusive: 12.6%,
COC(=O)[C@H](Cc1ccccc1)NC(=O)c1ccc2ccccc2n1,inconclusive: 193%,
CCCn1c(=O)c2sccc2n2c(CCCC(=O)NCC3CCCO3)nnc12 (stereo not drawn),,active: 20.6 µM
Cc1ccc(S(=O)(=O)N2CCOCC2)cc1C(=O)N1CCCC1,inconclusive: 23.9%,
Cc1cccc(NC(=O)c2nc[nH]c2C(=O)N[C@@H](CCCCNC(=O)OC(C)(C)C)C(=O)OC(C)(C)C)c1,,"inconclusive: 29.1 µM [falling, single point]"
CC(C)CCn1c(SCC#N)nc2c(sc3ccccc32)c1=O,inconclusive: -6.81%,
O=C(Cc1ccccc1)Nc1cc2c(cc1Cl)OCCCO2,,"inconclusive: 29.1 µM [activator, single point]"
O=C(NCc1ccco1)/C(=C\c1cccs1)NC(=O)c1ccco1,inconclusive: 8.21%,
C=CCn1c(SCc2csc(C)n2)nc2sc3c(c2c1=O)CCCCC3,,"inconclusive: 0.0651 µM [activator, full curve, poor fit]"
COc1cc(OC)c(NC(=O)c2ccco2)cc1Cl,,"inconclusive: 1.64 µM [activator, partial curve]"
CCCN1C2=NCCN2c2ccccc21,inconclusive: 49.5%,
COc1cc([C@@H]2CC=C(C(=O)O)[C@H](c3ccc(Cl)cc3)N2S(=O)(=O)c2ccc(C)cc2)cc(OC)c1OC,inconclusive: -36.3%,
CCOC(=O)CC1C(=O)NCCN1S(=O)(=O)c1ccccc1 (stereo not drawn),inconclusive: 169%,
O=C(CCS(=O)(=O)c1ccccc1)Nc1nc2ccc(F)cc2s1,inconclusive,

# Some values from the entries so far:
# Cc1ccc(S(=O)(=O)N2CCOCC2)cc1C(=O)N1CCCC1 | lipid storage change, negative = inhibition: inconclusive: 23.9%
# Cc1cccc(NC(=O)c2nc[nH]c2C(=O)N[C@@H](CCCCNC(=O)OC(C)(C)C)C(=O)OC(C)(C)C)c1 | Potency: inconclusive: 29.1 µM [falling, single point]
# Nc1c(C(=O)c2ccc(Cl)cc2)sc2nsc(SCCN3CCOCC3)c12 | Potency: inconclusive: 20.6 µM [falling, single point]
# CCSc1nnc(NC(=O)c2ccc(F)c(S(=O)(=O)N3CCOCC3)c2)s1 | Potency: inconclusive: 20.6 µM [falling, single point]

# From PubChem BioAssay AID2685 (National Center for Advancing Translational Sciences (NCATS), 2010)
